Earlier results, collected in patent US20220098196A1, “TRAPPING-FREE PARP INHIBITORS” (The Board of Regents of the University of Texas System, priority 2019, published 2022).
For at least one compound, name, drawing or mass did not settle the structure.

Details: Phase III, patients taking pomalidomide and dexamethasone vs. dexamethasone alone; p=0.0002; cited from earlier work

C[C@@H]1C[C@H]2[C@@H]3CCC4=CC(=O)C=C[C@]4(C)[C@@]3(F)[C@@H](O)C[C@]2(C)[C@@]1(O)C(=O)CO [dexamethasone]
overall survival (median): 7.8 months
